Test results as given in article PMC10409762.
Results are given in words; binding and its absence hold for the method and conditions named. In cells and extracts the contact can be indirect. Some entries that bind do so weakly or less than the wild type.

Sequences of proteins named here, by UniProt entry; tags and fusion partners are left off.
UniProt P37238: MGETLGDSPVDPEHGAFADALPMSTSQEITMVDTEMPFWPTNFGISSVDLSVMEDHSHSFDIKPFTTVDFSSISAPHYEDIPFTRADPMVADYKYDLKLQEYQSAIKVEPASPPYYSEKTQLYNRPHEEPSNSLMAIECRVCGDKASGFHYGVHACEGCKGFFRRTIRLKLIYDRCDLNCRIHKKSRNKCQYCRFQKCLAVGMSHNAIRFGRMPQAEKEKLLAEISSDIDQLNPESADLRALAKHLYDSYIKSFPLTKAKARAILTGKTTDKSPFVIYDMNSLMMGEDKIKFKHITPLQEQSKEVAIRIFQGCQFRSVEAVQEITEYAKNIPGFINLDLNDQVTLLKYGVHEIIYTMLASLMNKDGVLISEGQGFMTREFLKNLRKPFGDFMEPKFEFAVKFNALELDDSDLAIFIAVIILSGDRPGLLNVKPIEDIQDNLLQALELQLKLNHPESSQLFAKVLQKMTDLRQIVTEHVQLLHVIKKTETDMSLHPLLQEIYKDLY
UniProt Q04207: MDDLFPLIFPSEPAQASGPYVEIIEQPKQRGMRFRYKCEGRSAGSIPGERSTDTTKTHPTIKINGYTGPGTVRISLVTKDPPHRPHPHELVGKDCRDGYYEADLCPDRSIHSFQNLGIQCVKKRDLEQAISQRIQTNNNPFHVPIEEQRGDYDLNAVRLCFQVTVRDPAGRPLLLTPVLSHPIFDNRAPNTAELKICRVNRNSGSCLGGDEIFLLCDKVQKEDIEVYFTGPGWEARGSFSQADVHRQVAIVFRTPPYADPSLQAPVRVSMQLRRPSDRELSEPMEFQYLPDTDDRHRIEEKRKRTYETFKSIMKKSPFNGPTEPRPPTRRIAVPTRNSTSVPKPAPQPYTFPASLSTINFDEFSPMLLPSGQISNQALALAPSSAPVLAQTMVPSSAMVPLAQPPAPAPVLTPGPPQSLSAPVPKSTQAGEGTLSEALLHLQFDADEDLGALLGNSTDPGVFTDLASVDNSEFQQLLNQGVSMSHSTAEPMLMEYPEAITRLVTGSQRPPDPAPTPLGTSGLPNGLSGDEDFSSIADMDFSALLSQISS

Target: PPARγ (mouse) (UniProt P37238)
Assay: co-IP; cells co-transfected with PPARγ and p65, lysed in NP-40 buffer; supernatants incubated overnight with Protein A + G Agarose coupled to the indicated antibody, washed three times, immunoblot

With NF-κB (p65) (from UniProt Q04207 1-549) the binding was “binds”.
